Results are given in words; binding and its absence hold for the method and conditions named. Binding seen in cells or lysates may run through a third protein. Here binding means that the protein was enriched with, or labelled near, the bait; the list need not be complete.
Target: T1, POU2AF1 (human (endogenous in MM.1S)) (UniProt Q16633)
T1 sequence: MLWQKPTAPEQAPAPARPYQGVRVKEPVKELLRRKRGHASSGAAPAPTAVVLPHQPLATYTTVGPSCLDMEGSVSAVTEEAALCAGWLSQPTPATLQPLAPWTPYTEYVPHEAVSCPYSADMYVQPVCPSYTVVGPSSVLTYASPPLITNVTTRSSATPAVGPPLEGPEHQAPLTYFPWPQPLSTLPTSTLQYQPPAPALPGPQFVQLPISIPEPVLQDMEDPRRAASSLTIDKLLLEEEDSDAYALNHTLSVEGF
Assay: affinity purification with mass spectrometry; RIME of POU2AF1 in MM.1S cells: 40 x 10^6 cells cross-linked 8 min in 1% formaldehyde, nuclear lysates sonicated to 200-600 bp chromatin fragments, immunoprecipitation with 20 ug antibody pre-bound to beads overnight at 4 °C, TMT labelling, LC-MS/MS

B1: IRF4 (protein, UniProt Q15306 1-451)
chain: MNLEGGGRGGEFGMSAVSCGNGKLRQWLIDQIDSGKYPGLVWENEEKSIFRIPWKHAGKQDYNREEDAALFKAWALFKGKFREGIDKPDPPTWKTRLRCALNKSNDFEELVERSQLDISDPYKVYRIVPEGAKKGAKQLTLEDPQMSMSHPYTMTTPYPSLPAQQVHNYMMPPLDRSWRDYVPDQPHPEIPYQCPMTFGPRGHHWQGPACENGCQVTGTFYACAPPESQAPGVPTEPSIRSAEALAFSDCRLHICLYYREILVKELTTSSPEGCRISHGHTYDASNLDQVLFPYPEDNGQRKNIEKLLSHLERGVVLWMAPDGLYAKRLCQSRIYWDGPLALCNDRPNKLERDQTCKLFDTQQFLSELQAFAHHGRSLPRFQVTLCFGEEFPDPQRQRKLITAHVEPLLARQLYYFAQQNSGHFLRGYDLPEHISNPEDYHRSIRHSSIQE
binding: binds
